Data from PubChem BioAssay AID2685 (National Center for Advancing Translational Sciences (NCATS), 2010).
The other results are listed elsewhere or left out. Shown are side measurements of this screen, not its main read-out; they come without a call. Most of these compounds were active or inconclusive in the main read-out, so they are no random draw. Words in brackets tell the shape of the fitted curve; partial curves, single points and poor fits give uncertain potencies.

Test: qHTS Assay for Lipid Storage Modulators in Drosophila S3 Cells;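 on cell number change: cells counted by Cell Tracker Red CMTPX staining in the red channel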
Conditions: BODIPY lipid droplet fluorescence, 18-24 h; for cell number change: measured here: cell count max response, cells fed with added oleic acid
Method in brief: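 Laser-scanning cytometry quantifies lipid droplet accumulation (500–530 nm total intensity; droplet/cell object ratio) in oleic acid-fed (400 uM added) Drosophila S3 cells treated with a concentration series. 20 uM Triacsin C defined 100% inhibition.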

[1] = measured here: cell number channel AC50, cells fed with added oleic acid
[2] = measured here: lipid fluorescence (Fed channel) AC50, cells fed with added oleic acid

SMILES	cell number change	AC50 [1]	AC50 [2]
CCCCCC(/C=N/Nc1ccc(S(=O)(=O)N2CCOCC2)cc1[N+](=O)[O-])=C\c1ccccc1	-91.3%	9.2 µM [falling, partial curve]	–
O=C(CN1CCCc2ccccc21)NC(=O)NC1CCCCC1	-5.85%	–	0.651 µM [falling, full curve]
O=S(=O)(Cc1ccc(Cl)cc1)N1CCN(Cc2ccc3c(c2)OCO3)CC1	–	1.84 µM [rising, partial curve]	3.66 µM [rising, partial curve, poor fit]
CC1CCC(NC(=O)c2cc(S(=O)(=O)N(C)C)ccc2N2CCCC2)CC1 (stereo not drawn)	-13%	–	–
Brc1cccc(OCCSc2ncccn2)c1	108%	29.1 µM [rising, single point]	–
CCOc1ccc2nc(NC(=O)CSc3nnnn3C3CCCCC3)sc2c1	-17.7%	2.91 µM [rising, single point]	–
CC(C)[C@H](NS(=O)(=O)c1ccc2c(c1)OCCO2)C(=O)OCC(=O)Nc1ccccc1	0.141%	–	3.66 µM [rising, full curve]
O=C(Cc1ccc(Br)cc1)Nc1cccc(-c2cn3c(n2)SCC3)c1	23.2%	–	–
CCn1c(SCC(=O)Nc2nc3ccccc3s2)nc2c(c1=O)SC(C)C2 (stereo not drawn)	-23.9%	–	0.58 µM [falling, partial curve, poor fit]
CCOc1ccc(N2CC(C(=O)Nc3cccnc3)CC2=O)cc1 (stereo not drawn)	0.552%	–	–
Oc1c(Cl)cc(Cl)cc1C=Nc1ccccc1N1CCCC1	-15.2%	4.11 µM [falling, single point]	2.91 µM [falling, full curve, poor fit]
COc1ccc(CNC(=O)C(CC(C)C)NC(=O)c2ccccc2C)cc1 (stereo not drawn)	10.8%	–	–
Cc1ccsc1C(=O)NNC(=O)c1cccc(S(=O)(=O)N2CCCC2)c1	1.61%	–	11.6 µM [falling, partial curve, poor fit]
CC(C)(C)C(=O)N1CCN(c2ccnc3cc(Cl)ccc23)CC1	-7.09%	–	8.2 µM [falling, partial curve]
Cc1cccc(NC(=O)c2cc3c([nH]c4ccccc43)c(C)n2)c1C	-14.5%	2.06 µM [falling, partial curve]	–
Cc1cccc(N2CCN(C(=O)c3ccc4c(c3)OCCO4)CC2C)c1 (stereo not drawn)	-19.4%	0.116 µM [falling, full curve, poor fit]	10.3 µM [falling, partial curve]
FC(F)(F)c1nc(=S)c2ccccc2[nH]1	-37.3%	29.1 µM [falling, single point]	29.1 µM [falling, single point]
Cc1ccccc1NC(=O)c1cccc(C(F)(F)F)c1	13.5%	–	6.51 µM [rising, partial curve]
CCOC(=O)C1(CCSC)NC(c2ccco2)C2C(=O)N(C)C(=O)C21 (stereo not drawn)	–	0.58 µM [rising, single point]	–
O=C(Nc1nccs1)C1CC=CCC1C(=O)OCC(F)(F)C(F)F (stereo not drawn)	-31.4%	5.17 µM [falling, full curve]	6.51 µM [falling, full curve]

Sorted by SMILES length (smallest number first): part of the list above
SMILES	cell number change	AC50 [1]	AC50 [2]
Cc1ccccc1NC(=O)c1cccc(C(F)(F)F)c1	13.5%	–	6.51 µM [rising, partial curve]
O=C(CN1CCCc2ccccc21)NC(=O)NC1CCCCC1	-5.85%	–	0.651 µM [falling, full curve]
O=C(Nc1nccs1)C1CC=CCC1C(=O)OCC(F)(F)C(F)F (stereo not drawn)	-31.4%	5.17 µM [falling, full curve]	6.51 µM [falling, full curve]

Next entries.

SMILES	cell number change	AC50 [1]	AC50 [2]
COC(=O)c1nc(NC(=O)c2ccc(C(C)(C)C)cc2)n[nH]1	0.855%	–	29.1 µM [falling, partial curve, poor fit]
Cc1cc(Cl)c(OCCOCCN2CCCC(C)C2)c(Br)c1 (stereo not drawn)	14.6%	–	0.164 µM [rising, full curve]
COc1ccc(-n2ccnc(SCC(=O)NCc3ccccc3Cl)c2=O)cc1	-54.1%	1.84 µM [rising, partial curve]	3.66 µM [rising, partial curve]
CC(CC(F)(F)F)N1CCC(n2nccc2NC(=O)CCOc2ccccc2)CC1 (stereo not drawn)	-36%	14.6 µM [falling, partial curve]	–
CCOC(=O)CN1C(=O)CSc2ccc(S(=O)(=O)N3CCCC3)cc21	23%	–	0.13 µM [falling, full curve, poor fit]
OCCNc1nc(NCCC2=CCCCC2)nc(N2CCOCC2)n1	-20.9%	–	29.1 µM [falling, single point]
N/C(CCS(=O)(=O)c1ccc(Cl)cc1)=N\OC(=O)c1ccc(Cl)cc1	-15.2%	–	3.66 µM [falling, full curve]
O=S(=O)(c1ccc(Cl)nc1)N1CCCCC1	21.2%	–	0.116 µM [falling, single point]
c1cncc(-c2nn3c(Cn4nnc5ccccc54)nnc3s2)c1	-3.93%	–	5.17 µM [falling, single point]
Cc1ccc(NC2=NCCCCC2)cc1C	21.5%	–	8.2 µM [rising, partial curve, poor fit]
COc1ccc(-c2cc(C(=O)NCC(C)C)no2)cc1	8.23%	–	–
O=C(/C=C/c1ccc(S(=O)(=O)N2CCOCC2)cc1)NC(=S)Nc1ccc(Cl)cc1Cl	-17.8%	–	–
Cc1ccc(NC(=O)c2ccc(-n3cccn3)nc2)cc1	1.04%	0.00517 µM [rising, full curve, poor fit]	–
Cn1c(CNC(=O)c2ccccc2F)nnc1SCCOc1ccccc1	12%	–	–
Cc1cc2c(cc(C(=O)NCc3cccnc3)n2Cc2ccc(Cl)cc2)o1	-14%	–	0.58 µM [rising, partial curve]
CCOC(=O)N1CCC(N(CCN(C)C)C(=S)Nc2ccc(OCC)cc2)CC1	9.62%	–	6.51 µM [rising, single point]
C[C@H](NC(=O)c1[nH]cnc1C(=O)Nc1ccc(Cl)cc1)c1ccccc1	-72.8%	23.1 µM [falling, single point]	–
C1COCCNCCOCCOCCN1	25.8%	–	29.1 µM [rising, single point]
CN(CCC#N)C(=O)COC(=O)/C=C/c1ccc2c(c1)OCO2	-2.15%	0.366 µM [rising, single point]	0.326 µM [rising, partial curve, poor fit]
CCC1=NN(C(=O)c2ccc(Cl)cc2)C(O)(c2ccc(C)cc2)C1 (stereo not drawn)	-4.76%	–	4.11 µM [falling, single point]
